Source: patent US20240058329A1, “OPHTHALMIC COMPOSITION OF RIFAMYCIN, AND USE THEREOF” (BNC KOREA CO., LTD., priority 2020, published 2024)
Where “and” joins values, the source holds several entries; their conditions need not be identical. Equal values may be shown once. Read-outs that look alike come from different tables or passages of the source. At least one compound was matched to its structure with a doubt left.

Legend:
[1] = system: oxygen-induced retinopathy rat models; assay: Neovascularization in retina quantified by capillaries in histology sections; type: in vivo, Sprague-Dawley rat
Description: Oxygen-induced retinopathy rat models were produced according to the protocols of Yanni et al. (2010) and Dorfmann et al. (2008). Sprague-Dawley rat babies (and their nursing mothers) were exposed to a cycling oxygen environment (80% and 21%, about one day for each) for 15 days after starting from the day of birth (Day 0). On Day 15 (P15), the animals were moved to room air. […] An eye drop formulation shown as Example 1 A in Table 1, or a vehicle only was administered to the eyes of the baby rats every day, for 5 days between P15 and P19, in the morning, about the noon, and in the evening. […] On P20, all of the animals were euthanized, and the retina was visualized as histology sections. In those histology sections, capillaries in the retinal tissues in 3 eye balls (AMD 101 topical application, AMD 101 SC injection administration group, and non-induction of retinopathy) or 5 eye balls (control administration group of a vehicle only) were counted, so that neovascularization was quantified. These eye balls were selected from different animals in the above-described administration groups. Representative images of the histology sections are shown (see FIGS. 1A to 1H).

[2] = 0.01% benzalkonium chloride, 25° C.; for pH (X) of boundary at which rifampicin was dissolved: rifampicin 0.0001%, pairs with % (Y) in same row; for nonionic surfactant concentration % (Y) of boundary at which rifampicin was dissolved: at pH (X) in same row
[3] = benzalkonium chloride 0% to 0.00005%, 25° C.; for nonionic surfactant concentration % (Y) of boundary at which rifampicin was dissolved: at pH (X) in same row; for pH (X) of boundary at which rifampicin was dissolved: pairs with % (Y) in same row
[4] = rifampicin 0.01%, boric acid buffer
[5] = rifampicin 0.01%, phosphoric acid or citric acid buffer
[6] = rifampicin 0.05%, boric acid buffer
[7] = rifampicin 0.05%, phosphoric acid or citric acid buffer
[8] = rifampicin 0.1%, boric acid buffer
[9] = rifampicin 0.1%, phosphoric acid or citric acid buffer
[10] = rifampicin 0.5%, boric acid buffer
[11] = rifampicin 1%, boric acid buffer
[12] = rifampicin 2%, boric acid buffer
[13] = rifampicin 5%, phosphoric acid or citric acid buffer
[14] = rifampicin 10%, boric acid buffer
[15] = rifampicin 10%, phosphoric acid or citric acid buffer

With `CO[C@H]1/C=C/O[C@@]2(C)Oc3c(C)c(O)c4c(O)c(c(/C=N/N5CCN(C)CC5)c(O)c4c3C2=O)NC(=O)/C(C)=C\C=C\[C@H](C)[C@H](O)[C@@H](C)[C@@H](O)[C@@H](C)[C@H](OC(C)=O)[C@@H]1C` [rifampicin] the “number of new capillaries on the retinal surface (histology sections)” value ([1]; AMD 101 SC injection, FIGS. 1E and 1F) was “fewer than that in the control group”, the “number of new capillaries on the retinal surface (histology sections)” value ([1]; AMD 101 topical eye drop formulation, FIGS. 1C and 1D) was “fewer than that in the control group” and the “pH (X) of boundary at which rifampicin was dissolved” value (shortened to “pH (X) of boundary”) ([2]; boric acid buffer) was 9.9 and 10.8 and 7.1 and 8.8. The “pH (X) of boundary” value ([2]; phosphoric acid or citric acid buffer) was 8.0 and 9.0 and 10.7 and 7.0 and 7.8, the “nonionic surfactant concentration % (Y) of boundary at which rifampicin was dissolved” value ([2]; rifampicin 0.001%, boric acid buffer) was 0% and 0.001% and the “nonionic surfactant concentration % (Y) of boundary at which rifampicin was dissolved” value ([2]; rifampicin 0.001%, phosphoric acid or citric acid buffer) was 0% and 0.001%. For the same molecule, the “nonionic surfactant concentration % (Y) of boundary at which rifampicin was dissolved” value [2, 4] was 0.001% and 0.1% and 0.3% and 0.05% and 0.01%, the “nonionic surfactant concentration % (Y) of boundary at which rifampicin was dissolved” value [2, 5] was 0.3% and 0% and 0.01% and 0.2% and 0.5% and 0.6% and 0.1% and the “nonionic surfactant concentration % (Y) of boundary at which rifampicin was dissolved” value [2, 6] was 0.2% and 0.3% and 0.4%. For the same molecule, the “nonionic surfactant concentration % (Y) of boundary at which rifampicin was dissolved” value [2, 7] was 0.4% and 0.2% and 0.7% and 0.3%, the “nonionic surfactant concentration % (Y) of boundary at which rifampicin was dissolved” value [2, 8] was 0.2% and 0.3% and 0.4% and the “nonionic surfactant concentration % (Y) of boundary at which rifampicin was dissolved” value [2, 9] was 0.5% and 0.4% and 0.3% and 0.2% and 0.7% and 0.6% and 0%. The “nonionic surfactant concentration % (Y) of boundary at which rifampicin was dissolved” value ([2]; rifampicin 0.25%, boric acid buffer) was 0.6% and 0.5% and 0.3% and 0.2% and 0.8% and 0.7%, the “nonionic surfactant concentration % (Y) of boundary at which rifampicin was dissolved” value ([2]; rifampicin 0.25%, phosphoric acid or citric acid buffer) was 3% and 3.5% and 2% and 1% and 0.4% and 0.3% and 0.5% and the “nonionic surfactant concentration % (Y) of boundary at which rifampicin was dissolved” value [2, 10] was 1.3% and 1.2% and 1.0% and 0.7% and 0.3% and 0.2% and 1.1%. The “nonionic surfactant concentration % (Y) of boundary at which rifampicin was dissolved” value [2, 11] was 3.8% and 3.4% and 2.6% and 1.8% and 0.9% and 0.2% and 0.1% and 4.6%, the “nonionic surfactant concentration % (Y) of boundary at which rifampicin was dissolved” value [2, 12] was 9% and 8% and 7% and 3% and 0.6% and 0.1% and 6% and the “nonionic surfactant concentration % (Y) of boundary at which rifampicin was dissolved” value ([3]; rifampicin 0.002%, boric acid buffer) was 0%. For the same molecule, the “nonionic surfactant concentration % (Y) of boundary at which rifampicin was dissolved” value ([3]; rifampicin 0.002%, phosphoric acid or citric acid buffer) was 0%, the “nonionic surfactant concentration % (Y) of boundary at which rifampicin was dissolved” value ([3]; rifampicin 0.005%, boric acid buffer) was 0% and 0.01% and the “nonionic surfactant concentration % (Y) of boundary at which rifampicin was dissolved” value ([3]; rifampicin 0.005%, phosphoric acid or citric acid buffer) was 0% and 0.01%. The “nonionic surfactant concentration % (Y) of boundary at which rifampicin was dissolved” value [3, 4] was 0% and 0.1%, the “nonionic surfactant concentration % (Y) of boundary at which rifampicin was dissolved” value [3, 5] was 0.02% and 0% and 0.2% and the “nonionic surfactant concentration % (Y) of boundary at which rifampicin was dissolved” value [3, 6] was 0.2% and 0.1% and 0% and 0.3%. For the same molecule, the “nonionic surfactant concentration % (Y) of boundary at which rifampicin was dissolved” value [3, 7] was 0.4% and 0.3% and 0.5% and 0%, the “nonionic surfactant concentration % (Y) of boundary at which rifampicin was dissolved” value [3, 8] was 0.2% and 0.1% and 0% and 0.4% and 0.3% and the “nonionic surfactant concentration % (Y) of boundary at which rifampicin was dissolved” value [3, 9] was 0.4% and 1.3% and 0.9% and 0.3% and 0% and 0.5%. The “nonionic surfactant concentration % (Y) of boundary at which rifampicin was dissolved” value [3, 10] was 1.3% and 1.0% and 0.8% and 0.5% and 0.1% and 0%, the “nonionic surfactant concentration % (Y) of boundary at which rifampicin was dissolved” value ([3]; rifampicin 0.5%, phosphoric acid or citric acid buffer) was 1.8% and 7.5% and 9.5% and 5% and 0% and 1.2% and the “nonionic surfactant concentration % (Y) of boundary at which rifampicin was dissolved” value [3, 11] was 3.0% and 4.5% and 3.8% and 3.4% and 0.9% and 0.1% and 0% and 2.5%. For the same molecule, the “nonionic surfactant concentration % (Y) of boundary at which rifampicin was dissolved” value [3, 12] was 6% and 10% and 2% and 0% and 7%, the “nonionic surfactant concentration % (Y) of boundary at which rifampicin was dissolved” value [3, 13] was 0% and the “pH (X) of boundary” value [3, 13] was 11.6 and 8.7 and 10.4. For the same molecule, the “nonionic surfactant concentration % (Y) of boundary at which rifampicin was dissolved” value [3, 14] was 0%, the “pH (X) of boundary” value [3, 14] was 11.4 and 8.6 and 9.6 and the “nonionic surfactant concentration % (Y) of boundary at which rifampicin was dissolved” value [3, 15] was 0%. The “pH (X) of boundary” value [3, 15] was 11.6 and 8.9 and 9.8.
